Data: the supplement of paper PMC5355238
Counter-ions that a name gives are not always drawn. Some of the results follow. Most values lie at the level of the controls, where differences are scatter.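 Reh is a human leukemia cell line; the read-out is the median γH2AX antibody signal in S-phase cells by flow cytometry, with the score counting standard deviations from the median difference of each paired set of plates. Scores above 2.5 were called candidate hits, while scores below -2 mark compounds that lowered the MK1775-induced damage.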

Test system: Reh
Assay: Z' of S-phase gammaH2AX difference (drug + MK1775 minus drug alone) (Z-score); higher = stronger synergistic S-phase DNA damage with MK1775
Settings: MK1775 concentration 400 nM; first compound 10 µM; 4 h

| SMILES | Z' of S-phase gammaH2AX difference (Z-score) |
| --- | --- |
| CC(=O)OCC1=C(C(=O)O)N2C(=O)[C@@H](NC(=O)Cc3cccs3)[C@H]2SC1 [Cephalothin sodium] + C=CCn1c(=O)c2cnc(Nc3ccc(N4CCN(C)CC4)cc3)nc2n1-c1cccc(C(C)(C)O)n1 [MK1775] | inactive: -0.351 |
| O=C1CCC(N2C(=O)c3ccccc3C2=O)C(=O)N1 (stereo unspecified) [(?)-Thalidomide] + C=CCn1c(=O)c2cnc(Nc3ccc(N4CCN(C)CC4)cc3)nc2n1-c1cccc(C(C)(C)O)n1 [MK1775] | inactive: -0.591 |
| CNCCCN1c2ccccc2CCc2ccccc21 [Desipramine hydrochloride] + C=CCn1c(=O)c2cnc(Nc3ccc(N4CCN(C)CC4)cc3)nc2n1-c1cccc(C(C)(C)O)n1 [MK1775] | inactive: 0.245 |
| CCC(C)n1ncn(-c2ccc(N3CCN(c4ccc(OCC5COC(Cn6cncn6)(c6ccc(Cl)cc6Cl)O5)cc4)CC3)cc2)c1=O (stereo unspecified) [Itraconazole (Sporanox)] + C=CCn1c(=O)c2cnc(Nc3ccc(N4CCN(C)CC4)cc3)nc2n1-c1cccc(C(C)(C)O)n1 [MK1775] | inactive: -0.00665 |
| CC(N)C(=O)OC(C)(C)Cc1ccc(Cl)cc1 (stereo unspecified) [Alaproclate hydrochloride] + C=CCn1c(=O)c2cnc(Nc3ccc(N4CCN(C)CC4)cc3)nc2n1-c1cccc(C(C)(C)O)n1 [MK1775] | inactive: -0.14 |
| CN(CCOc1ccc(C[C@H](Nc2ccccc2C(=O)c2ccccc2)C(=O)O)cc1)c1ccccn1 + C=CCn1c(=O)c2cnc(Nc3ccc(N4CCN(C)CC4)cc3)nc2n1-c1cccc(C(C)(C)O)n1 [MK1775] | inactive: 2.29 |
| COC(=O)C1=C(C)NC(C)=C(C(=O)OCCN(C)Cc2ccccc2)C1c1cccc([N+](=O)[O-])c1 (stereo unspecified) [Nicardipine hydrochloride] + C=CCn1c(=O)c2cnc(Nc3ccc(N4CCN(C)CC4)cc3)nc2n1-c1cccc(C(C)(C)O)n1 [MK1775] | inactive: 1.64 |
| Cc1ccccc1CNc1ncnc2c1ncn2[C@@H]1O[C@H](CO)[C@@H](O)[C@H]1O [Metrifudil] + C=CCn1c(=O)c2cnc(Nc3ccc(N4CCN(C)CC4)cc3)nc2n1-c1cccc(C(C)(C)O)n1 [MK1775] | inactive: 1.8 |
| COc1ccc(C2CC(c3ccccc3)=NN2c2ccc(S(N)(=O)=O)cc2)cc1 (stereo unspecified) + C=CCn1c(=O)c2cnc(Nc3ccc(N4CCN(C)CC4)cc3)nc2n1-c1cccc(C(C)(C)O)n1 [MK1775] | inactive: -0.0569 |
| CCCC(=O)[O-].[Na+] [Sodium butyrate] + C=CCn1c(=O)c2cnc(Nc3ccc(N4CCN(C)CC4)cc3)nc2n1-c1cccc(C(C)(C)O)n1 [MK1775] | inactive: -0.39 |
| Cc1cc(Nc2cc(N3CCN(C)CC3)nc(/C=C/c3ccccc3)n2)n[nH]1 + C=CCn1c(=O)c2cnc(Nc3ccc(N4CCN(C)CC4)cc3)nc2n1-c1cccc(C(C)(C)O)n1 [MK1775] | inactive: -0.57 |
| CC1(C)CNc2cc(NC(=O)c3cccnc3NCc3ccncc3)ccc21 [Motesanib Diphosphate] + C=CCn1c(=O)c2cnc(Nc3ccc(N4CCN(C)CC4)cc3)nc2n1-c1cccc(C(C)(C)O)n1 [MK1775] | inactive: -0.617 |
| CC(C)NCC(O)c1ccc(O)c(O)c1 (single isomer, unassigned; (-)) [(-)-Isoproterenol hydrochloride] + C=CCn1c(=O)c2cnc(Nc3ccc(N4CCN(C)CC4)cc3)nc2n1-c1cccc(C(C)(C)O)n1 [MK1775] | inactive: 0.279 |
| Cc1ccccc1C(OCCN(C)C)c1ccccc1 (stereo unspecified) [Orphenadrine hydrochloride] + C=CCn1c(=O)c2cnc(Nc3ccc(N4CCN(C)CC4)cc3)nc2n1-c1cccc(C(C)(C)O)n1 [MK1775] | inactive: 1.03 |
| N=C(N)NCCCCN [Agmatine sulfate] + C=CCn1c(=O)c2cnc(Nc3ccc(N4CCN(C)CC4)cc3)nc2n1-c1cccc(C(C)(C)O)n1 [MK1775] | inactive: -0.571 |
| CCc1cc(-c2n[nH]c(C)c2-c2ccc3c(c2)OCCO3)c(O)cc1O + C=CCn1c(=O)c2cnc(Nc3ccc(N4CCN(C)CC4)cc3)nc2n1-c1cccc(C(C)(C)O)n1 [MK1775] | inactive: 0.178 |
| COc1ncc(-c2ccc3nccc(-c4ccnnc4)c3c2)cc1NS(=O)(=O)c1ccc(F)cc1F + C=CCn1c(=O)c2cnc(Nc3ccc(N4CCN(C)CC4)cc3)nc2n1-c1cccc(C(C)(C)O)n1 [MK1775] | inactive: -0.864 |
| CCCCNc1ccc(C(=O)OCCN(C)C)cc1 [Tetracaine hydrochloride] + C=CCn1c(=O)c2cnc(Nc3ccc(N4CCN(C)CC4)cc3)nc2n1-c1cccc(C(C)(C)O)n1 [MK1775] | inactive: -0.226 |

| SMILES | Z' of S-phase gammaH2AX difference (Z-score) |
| --- | --- |
| COc1ccc(NC(=O)c2ccc(-c3ccc(-c4noc(C)n4)cc3C)cc2)cc1N1CCN(C)CC1 + C=CCn1c(=O)c2cnc(Nc3ccc(N4CCN(C)CC4)cc3)nc2n1-c1cccc(C(C)(C)O)n1 [MK1775] | inactive: 0.165 |
| CCCCCOC(=O)Nc1nc(=O)n([C@@H]2O[C@H](C)[C@@H](O)[C@H]2O)cc1F [Capecitabine (Xeloda)] + C=CCn1c(=O)c2cnc(Nc3ccc(N4CCN(C)CC4)cc3)nc2n1-c1cccc(C(C)(C)O)n1 [MK1775] | inactive: -0.15 |
| COc1ccccc1N1CCN(CCCCNC(=O)c2ccc3ccccc3c2)CC1 + C=CCn1c(=O)c2cnc(Nc3ccc(N4CCN(C)CC4)cc3)nc2n1-c1cccc(C(C)(C)O)n1 [MK1775] | inactive: 0.22 |
| Cc1cnc(C(=O)NCCc2ccc(S(=O)(=O)NC(=O)NC3CCCCC3)cc2)cn1 [Glipizide] + C=CCn1c(=O)c2cnc(Nc3ccc(N4CCN(C)CC4)cc3)nc2n1-c1cccc(C(C)(C)O)n1 [MK1775] | inactive: 0.0559 |
| CC(C)NC[C@H](O)COc1cccc2[nH]ccc12 [S(-)-Pindolol] + C=CCn1c(=O)c2cnc(Nc3ccc(N4CCN(C)CC4)cc3)nc2n1-c1cccc(C(C)(C)O)n1 [MK1775] | inactive: 0.0307 |
| O=C1[C@H](CC[C@H](O)c2ccc(F)cc2)[C@@H](c2ccc(O)cc2)N1c1ccc(F)cc1 [Ezetimibe (Zetia)] + C=CCn1c(=O)c2cnc(Nc3ccc(N4CCN(C)CC4)cc3)nc2n1-c1cccc(C(C)(C)O)n1 [MK1775] | inactive: -0.0776 |
| Nc1nc2[nH]cc(CCc3ccc(C(=O)N[C@@H](CCC(=O)O)C(=O)O)cc3)c2c(=O)[nH]1 [Pemetrexed] + C=CCn1c(=O)c2cnc(Nc3ccc(N4CCN(C)CC4)cc3)nc2n1-c1cccc(C(C)(C)O)n1 [MK1775] | inactive: 0.314 |
| COCCc1ccc(OCC(O)CNC(C)C)cc1 (stereo not drawn) [(?)-Metoprolol (+)-tartrate] + C=CCn1c(=O)c2cnc(Nc3ccc(N4CCN(C)CC4)cc3)nc2n1-c1cccc(C(C)(C)O)n1 [MK1775] | inactive: 1.15 |
| CC(C)Cc1ccc(C(C)C(=O)O)cc1 (stereo unspecified) [(?)-Ibuprofen] + C=CCn1c(=O)c2cnc(Nc3ccc(N4CCN(C)CC4)cc3)nc2n1-c1cccc(C(C)(C)O)n1 [MK1775] | inactive: 0.216 |
| COC(=O)C(N)Cc1ccc(Cl)cc1 (racemic) [DL-p-Chlorophenylalanine methyl ester hydrochloride] + C=CCn1c(=O)c2cnc(Nc3ccc(N4CCN(C)CC4)cc3)nc2n1-c1cccc(C(C)(C)O)n1 [MK1775] | inactive: -0.481 |
| O=c1c(O)c(-c2ccc(O)c(O)c2)oc2cc(O)cc(O)c12 [Quercetin (Sophoretin)] + C=CCn1c(=O)c2cnc(Nc3ccc(N4CCN(C)CC4)cc3)nc2n1-c1cccc(C(C)(C)O)n1 [MK1775] | inactive: -0.357 |
| O=c1c(O)c(-c2ccc(O)c(O)c2)oc2cc(O)cc(O)c12 [Quercetin dihydrate] + C=CCn1c(=O)c2cnc(Nc3ccc(N4CCN(C)CC4)cc3)nc2n1-c1cccc(C(C)(C)O)n1 [MK1775] | inactive: -0.611 |
| O=C(O)C1(C(=O)O)CCC1.[NH2-].[NH2-].[Pt+2] [Carboplatin] + C=CCn1c(=O)c2cnc(Nc3ccc(N4CCN(C)CC4)cc3)nc2n1-c1cccc(C(C)(C)O)n1 [MK1775] | inactive: -0.0237 |
| N[C@H](C(=O)O)[C@H]1C[C@@H]1C(=O)O [(2S,1'S,2'S)-2-(carboxycyclopropyl)glycine] + C=CCn1c(=O)c2cnc(Nc3ccc(N4CCN(C)CC4)cc3)nc2n1-c1cccc(C(C)(C)O)n1 [MK1775] | inactive: -0.304 |
| CC(C)(C)NCC(O)c1cc(O)cc(O)c1 (stereo unspecified) [Terbutaline hemisulfate] + C=CCn1c(=O)c2cnc(Nc3ccc(N4CCN(C)CC4)cc3)nc2n1-c1cccc(C(C)(C)O)n1 [MK1775] | inactive: -0.136 |
| CCOC(=O)[N-]c1c[n+](N2CCOCC2)no1 [Molsidomine] + C=CCn1c(=O)c2cnc(Nc3ccc(N4CCN(C)CC4)cc3)nc2n1-c1cccc(C(C)(C)O)n1 [MK1775] | inactive: 1.41 |
| CC[N+](CC)(CC)CCOc1cccc(OCC[N+](CC)(CC)CC)c1OCC[N+](CC)(CC)CC [Gallamine triethiodide] + C=CCn1c(=O)c2cnc(Nc3ccc(N4CCN(C)CC4)cc3)nc2n1-c1cccc(C(C)(C)O)n1 [MK1775] | inactive: -0.211 |
| CCN(CCCOc1ccc2c(Nc3cc(CC(=O)Nc4cccc(F)c4)[nH]n3)ncnc2c1)CCOP(=O)(O)O [Barasertib (AZD1152-HQPA)] + C=CCn1c(=O)c2cnc(Nc3ccc(N4CCN(C)CC4)cc3)nc2n1-c1cccc(C(C)(C)O)n1 [MK1775] | inactive: 0.22 |

Part of the list above, with bars between the fields:
SMILES | Z' of S-phase gammaH2AX difference (Z-score)
COc1ccccc1N1CCN(CCCCNC(=O)c2ccc3ccccc3c2)CC1 + C=CCn1c(=O)c2cnc(Nc3ccc(N4CCN(C)CC4)cc3)nc2n1-c1cccc(C(C)(C)O)n1 [MK1775] | inactive: 0.22
O=c1c(O)c(-c2ccc(O)c(O)c2)oc2cc(O)cc(O)c12 [Quercetin (Sophoretin)] + C=CCn1c(=O)c2cnc(Nc3ccc(N4CCN(C)CC4)cc3)nc2n1-c1cccc(C(C)(C)O)n1 [MK1775] | inactive: -0.357
